Drawing on paper PMC7819943, “Rice protein-binding microarrays: a tool to detect cis-acting elements near promoter regions in rice”, this text covers binding signal for 42 sequences.

This is one part of the list.

The assay addresses T1, OsSMF1 (Oryza sativa, UniProt Q6ZLB0 1-436).
T1 sequence: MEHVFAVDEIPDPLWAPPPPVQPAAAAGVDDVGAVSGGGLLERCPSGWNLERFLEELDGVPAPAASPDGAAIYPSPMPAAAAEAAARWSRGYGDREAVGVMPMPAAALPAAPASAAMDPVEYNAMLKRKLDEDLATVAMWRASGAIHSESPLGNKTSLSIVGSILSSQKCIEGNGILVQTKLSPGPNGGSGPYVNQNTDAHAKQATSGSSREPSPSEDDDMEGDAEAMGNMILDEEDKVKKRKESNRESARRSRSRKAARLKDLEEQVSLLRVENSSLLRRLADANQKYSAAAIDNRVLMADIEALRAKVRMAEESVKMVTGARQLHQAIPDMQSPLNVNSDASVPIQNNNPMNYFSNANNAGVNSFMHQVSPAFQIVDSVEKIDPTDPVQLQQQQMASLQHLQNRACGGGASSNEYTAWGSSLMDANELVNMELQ
Nature of the assay: protein-binding microarray (RPBM); PBS, 2% BSA, 51.3 ng/ul salmon testes DNA, 50 uM zinc acetate, 200 nM TF, 25 C, 1 h; high values mean tight binding. To be noted: protein: recombinant; tags: N-terminal polyhistidine and DsRed monomer fusion (pET32a); chain copies: 2; label: CyDye5-dUTP incorporated in the synthesized complementary strand; 3' TTTTT single-stranded linker to array surface; dsDNA, one strand shown. The procedure, abridged: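 A custom Agilent array was converted to double-stranded form by primer extension with Cy5-dUTP and blocked with 2% BSA. Protein at 200 nM in PBS with 2% BSA, salmon testes DNA and 50 µM zinc acetate was applied for 1 h at 25 °C, followed by washing. The proteins were polyhistidine–DsRed N-terminal fusions of transcription factors, expressed in E. coli BL21-CodonPlus and Ni–NTA-purified. The binding signal is per-feature fluorescence intensity (arbitrary units) from an Axon 4000B scanner.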
Turning to “CTTGGACATCACCTGCGTGTTTCGAATCAGCTCCGTCATGCGGAGTCACCTAGTGCAG”, the binding signal was 3710 fluorescence intensity (a.u.).

Turning to “TATTCACAAGCCGCCCTCGTGGCTGTACTCGTACTACGATCGGAGTCACCTAGTGCAG”, the binding signal is 3720 fluorescence intensity (a.u.).

In the case of “GCGGCGGTCTCTGCGGCTGAGACTGATGAGCTTTAGGTGGCGGAGTCACCTAGTGCAG”, the binding signal was 28500 fluorescence intensity (a.u.).

Turning to “CCGCATTCTCCCGCGCCGCGCCGGATTTTGGGTACAAATGCGGAGTCACCTAGTGCAG”, the binding signal is 3420 fluorescence intensity (a.u.).

As to “GCGGCCTATTGTTAGCGAGGAGTCACCCAGATTCTTCTCCCGGAGTCACCTAGTGCAG”, the binding signal is 6870 fluorescence intensity (a.u.).

On to “GTATCATGTCAATTGTCAGTATGACAAAAGCTAATTCCTACGGAGTCACCTAGTGCAG”, for which the binding signal is 28900 fluorescence intensity (a.u.).

As for “CCCTGCGCAACTCTGCGGCTCGGCTACCTCGACATCGACTCGGAGTCACCTAGTGCAG”, the binding signal was 3260 fluorescence intensity (a.u.).

Turning to “ATAGCAGGAGGAGTGCAGGAAACACACATGCTCTTCCTCCCGGAGTCACCTAGTGCAG”, the binding signal is 3670 fluorescence intensity (a.u.).

With “CCCGTGCCACACGCCCACAACGCACGCCCTCCTCGAGACCCGGAGTCACCTAGTGCAG”, the binding signal was 3510 fluorescence intensity (a.u.).

Take “TCATGTTGCCCAACTGCCACATGGGTGGCCACTGTGCAGTCGGAGTCACCTAGTGCAG”: the binding signal is 4740 fluorescence intensity (a.u.).

Take “GTAGTTAAGTATATTAACTAATAGTGTTAATAGAGGTAGTCGGAGTCACCTAGTGCAG”: the binding signal was 4230 fluorescence intensity (a.u.).

“ATAAATAACCTGTCTGAAGGCGGGCTGGCGCCACGTGTTGCGGAGTCACCTAGTGCAG”: the binding signal is 10500 fluorescence intensity (a.u.).

For “GGTTGAAAGCTTTCAGAATTTGACTCAGCGTATAAATTTCCGGAGTCACCTAGTGCAG”, the binding signal is 6950 fluorescence intensity (a.u.).

For the sequence “GACCACAACACGCGACGCCACGCCTCCTCCCGATCCGCTCCGGAGTCACCTAGTGCAG”, the binding signal is 3510 fluorescence intensity (a.u.).

Turning to “CCCAAACCCCAGAGTTTGAGTACGCGTCAGATGGCGGTTTCGGAGTCACCTAGTGCAG”, the binding signal was 6710 fluorescence intensity (a.u.).

Regarding “TTACAAAACAACTAACTTTACATTTCAATTTGGACCATCACGGAGTCACCTAGTGCAG”, the binding signal was 4510 fluorescence intensity (a.u.).

As to “CATCATTACTTGACACGCACAGCACTCCGCCCATCCCCGCCGGAGTCACCTAGTGCAG”, the binding signal is 5480 fluorescence intensity (a.u.).

As for “TTCCATTTCTTCCCCTCGCCAAGGCGAGGCCGCGAGAGGGCGGAGTCACCTAGTGCAG”, the binding signal is 9040 fluorescence intensity (a.u.).

In the case of “TGAAATGTCACGTACTGTTTGTTCTAGTTAGTGAATTGTCCGGAGTCACCTAGTGCAG”, the binding signal was 3560 fluorescence intensity (a.u.).

On to “CGAAGTCTGCGCAGCGTCGTCACTGAGCACGTGCCGTCGTCGGAGTCACCTAGTGCAG”, for which the binding signal is 4270 fluorescence intensity (a.u.).

“CTCGCCGCCGACGTTGAGGGTGACGACGGAGGAGGCCATTCGGAGTCACCTAGTGCAG”: the binding signal is 3730 fluorescence intensity (a.u.).

As for “CTGTATATATCCACACCTGAACACATTGGCTTCTGGGCATCGGAGTCACCTAGTGCAG”, the binding signal was 4230 fluorescence intensity (a.u.).

For the sequence “GTGCAAGTGCCGAACGCGGCCGACGTGGCGAAGGCGGCTGCGGAGTCACCTAGTGCAG”, the binding signal is 7190 fluorescence intensity (a.u.).

Turning to “CGCATCTCTTATACCAATTTCGGGGTCTGGGATCTGGGTTCGGAGTCACCTAGTGCAG”, the binding signal is 22600 fluorescence intensity (a.u.).

For “AGTTTACTGAAGATGACACGCCGACACGAATTAGGACAGCCGGAGTCACCTAGTGCAG”, the binding signal was 3710 fluorescence intensity (a.u.).

On to “GTTTTATGTACATGTCATATGTTTCTTAAGGCCTAAATGCCGGAGTCACCTAGTGCAG”, for which the binding signal was 3580 fluorescence intensity (a.u.).

As to “AGCTTGTTTAGCTCCTGGAAGAAATGTGTCCGAATTATATCGGAGTCACCTAGTGCAG”, the binding signal is 3540 fluorescence intensity (a.u.).

“ACACCGCACCGCATCGTCGCCGTCATCCTCCGGCGTCCCGCGGAGTCACCTAGTGCAG”: the binding signal is 3540 fluorescence intensity (a.u.).

As to “CGTCGTAGGTGAAACAGCCACGTCATCTCGCAGGTGAATCCGGAGTCACCTAGTGCAG”, the binding signal was 13900 fluorescence intensity (a.u.).

“CGAGCTTTGATTGTTTGTTAGTAGTAGTAATTTTCTCATGCGGAGTCACCTAGTGCAG”: the binding signal was 3270 fluorescence intensity (a.u.).

Regarding “CTACTAGCTCACACTGTCACAGTCACCACACAGCTACTAGCGGAGTCACCTAGTGCAG”, the binding signal was 4900 fluorescence intensity (a.u.).

With “CTGTAACACAGACTAAATATGTATGTGTGTATGACATGTGCGGAGTCACCTAGTGCAG”, the binding signal is 3510 fluorescence intensity (a.u.).

As for “ACGTCGCGTGCTGCTGCCGTGCCCGCGTACGTGCCGTGCTCGGAGTCACCTAGTGCAG”, the binding signal is 3180 fluorescence intensity (a.u.).

Consider “GCGCAGAGGAGAGGAGGAGGATATCGAGTGCGGGCCGGAGCGGAGTCACCTAGTGCAG”, for which the binding signal was 4140 fluorescence intensity (a.u.).

For “CCCGATCAGTTGACACTCGTCGTCGCCCTTCTCTTCGCCACGGAGTCACCTAGTGCAG”, the binding signal was 3620 fluorescence intensity (a.u.).

Take “CTGGCTGTCGTCAGCTGTCACACCCCAAACCTGCACGTGCCGGAGTCACCTAGTGCAG”: the binding signal was 3340 fluorescence intensity (a.u.).

Turning to “CATCAGCGTACGCGAACGGGCTCTCGCCGTGCGGTGGCGTCGGAGTCACCTAGTGCAG”, the binding signal was 22500 fluorescence intensity (a.u.).

On to “TGTGATGAACAATTAGCATATGAGATTATCGGTTTTAATACGGAGTCACCTAGTGCAG”, for which the binding signal was 3260 fluorescence intensity (a.u.).

As to “CCACGCGCAAAAGCTGAGCTGCCACGAACGCGCCGTCACCCGGAGTCACCTAGTGCAG”, the binding signal is 5920 fluorescence intensity (a.u.).

Turning to “GGCGGCGGAGGGCAGTGCTAGGGCTGACACGTTGAGGCGTCGGAGTCACCTAGTGCAG”, the binding signal was 3230 fluorescence intensity (a.u.).

As to “CTTGTCACTCAGCCAGCATGATGATGAGATTGAGGTTGATCGGAGTCACCTAGTGCAG”, the binding signal was 24500 fluorescence intensity (a.u.).

On to “AGTCAGGGTGCTTGATGAGACAGGTGACTTCATCACCGGACGGAGTCACCTAGTGCAG”, for which the binding signal was 3170 fluorescence intensity (a.u.).
